The text below walks through data of US20200024341A1.

The chains behind the UniProt entries cited, without tags or fusion partners. Where a name states a change or a piece, a line headed by the entry shows the natural chain unless it says otherwise.
UniProt P07478: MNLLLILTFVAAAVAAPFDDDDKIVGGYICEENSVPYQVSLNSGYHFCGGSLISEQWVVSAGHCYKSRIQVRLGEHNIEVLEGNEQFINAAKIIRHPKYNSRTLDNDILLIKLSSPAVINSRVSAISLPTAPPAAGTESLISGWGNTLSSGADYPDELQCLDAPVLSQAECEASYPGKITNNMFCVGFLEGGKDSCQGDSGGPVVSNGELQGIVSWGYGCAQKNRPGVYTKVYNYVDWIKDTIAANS

Assay [1] addresses T1, prosaposin (UniProt P07602).
T1 sequence (looked up): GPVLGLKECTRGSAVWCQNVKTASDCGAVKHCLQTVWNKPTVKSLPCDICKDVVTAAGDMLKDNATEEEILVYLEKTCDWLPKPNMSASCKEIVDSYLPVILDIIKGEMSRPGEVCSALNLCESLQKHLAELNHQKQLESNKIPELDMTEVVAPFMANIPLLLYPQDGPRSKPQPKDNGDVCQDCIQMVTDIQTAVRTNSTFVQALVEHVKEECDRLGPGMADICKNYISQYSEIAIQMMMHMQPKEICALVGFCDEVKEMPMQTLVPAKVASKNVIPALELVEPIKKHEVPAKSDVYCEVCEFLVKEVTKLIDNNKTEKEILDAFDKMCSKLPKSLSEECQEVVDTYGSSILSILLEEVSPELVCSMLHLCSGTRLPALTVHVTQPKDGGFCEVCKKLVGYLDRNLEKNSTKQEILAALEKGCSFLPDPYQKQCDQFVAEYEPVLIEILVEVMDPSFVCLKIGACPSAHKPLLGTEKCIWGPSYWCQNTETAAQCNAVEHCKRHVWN
Briefly: co-immunoprecipitation.

The target in assay [2] is Protease, serine 2 (PRSS2) (Homo sapiens (Human)) (UniProt P07478). Briefly: co-immunoprecipitation.

These are yes or no findings as the source states them, for the method shown. In cells and extracts the contact can be indirect. Some entries that bind do so weakly or less than the wild type.

On to YGTCSQLCTNTDGSFICGCVEGYLL [Peptide 12 (amino acids 140-164 of LRP1)], for which the binding entry in assay [1] and in assay [2] was “binds” in each case.
On to FICGCVEGYLLQPDNRSCKAKN [Peptide 13 (amino acids 151-172 of LRP1)], for which the binding entry in assay [1] and in assay [2] was “binds” each time.
